Results from patent publication US11957716B2 (Immatics Biotechnologies GmbH, priority 2021, dated 2024).

Tested on: HLA molecules from shock-frozen tissue samples
Test: Identification and relative quantitation of tumor associated peptides presented on the cell surface by LC-MS (XPRESIDENT)
Parameters: species or system human
Conditions: all indications on which the peptide was identified at least once, independent of the HLA typing of the sample or the antibody used

Substance	Peptide presentation on cancer types
209 (AILLPQLPK; listed as Homo sapiens) [compound 209]	BRCA, CCC, HCC, GC, NSCLC, OSCAR, PACA, PRCA, RCC, SCLC, UTC
24 (LIYIPTNSIYK; listed as Homo sapiens) [compound 24]	HCC, PRCA
95 (YAFRNQTL; listed as Homo sapiens) [compound 95]	PRCA, SCLC
189 (IWRALGSLF; listed as Homo sapiens) [compound 189]	GC, MEL, NSCLC, UBC
26 (ETNTIEFIY; listed as Homo sapiens) [compound 26]	BRCA, CRC, NSCLC, MEL, RCC, UBC
182 (RPSLPCRSF; listed as Homo sapiens) [compound 182]	BRCA, HNSCC, NHL, NSCLC, OSCAR, RCC, PACA, UEC
202 (KLLLLSSVK; listed as Homo sapiens) [compound 202]	GC, GBC, HCC, NSCLC, PACA
16 (NFHTLAQQLLF; listed as Homo sapiens) [compound 16]	HNSCC, NSCLC
62 (SFSLLLPYL; listed as Homo sapiens) [compound 62]	AML, CRC, HCC, MEL, NSCLC
60 (VSPDEVLALW; listed as Homo sapiens) [compound 60]	HNSCC, MEL, OC, UBC
84 (KEFAFLEHSL; listed as Homo sapiens) [compound 84]	CRC, GC, HNSCC, NSCLC, OC, OSCAR, UBC, UEC
40 (LYQTTIELF; listed as Homo sapiens) [compound 40]	PRCA
6 (SHSLPAFTL; listed as Homo sapiens) [compound 6]	PRCA
97 (ALIVLHLSL; listed as Homo sapiens) [compound 97]	AML, CRC, MEL, NHL, OSCAR
215 (TPLTRTTL; listed as Homo sapiens) [compound 215]	CCC, CRC, GBM, MEL, NSCLC, OC, PACA, UBC
181 (FDLNIGSAY; listed as Homo sapiens) [compound 181]	GBC, GC, HCC, HNSCC, NHL
56 (DVDIHKDLY; listed as Homo sapiens) [compound 56]	PRCA
25 (GVCSTLTIK; listed as Homo sapiens) [compound 25]	CRC, GC, NSCLC, RCC, UBC
104 (GSLQTLPPK; listed as Homo sapiens) [compound 104]	GBC, OSCAR, UBC
214 (RPSPVRVAAL; listed as Homo sapiens) [compound 214]	AML, BRCA, CRC, GBC, GC, MEL, NHL, NSCLC, OSCAR, PACA, RCC, UBC, UEC
91 (RIVTYIVAK; listed as Homo sapiens) [compound 91]	AML, BRCA, CCC, HCC, MEL, NHL, NSCLC, OC, OSCAR, PACA, PRCA, UBC, UEC
14 (ILAPPQRISF; listed as Homo sapiens) [compound 14]	CRC, GBC, HNSCC, NSCLC, OSCAR, PACA, SCLC
89 (SPSSPLLLLA; listed as Homo sapiens) [compound 89]	BRCA, GC, OC, SCLC, UBC
190 (STQSSLLYLK; listed as Homo sapiens) [compound 190]	CCC, NHL, NSCLC, OC, RCC

Substance	Peptide presentation on cancer types
194 (VLYPSHSSF; listed as Homo sapiens) [compound 194]	GBC, HCC
206 (VEGVHFVQLL; listed as Homo sapiens) [compound 206]	CLL, HCC, NHL, OSCAR
137 (MPIQVLKGL; listed as Homo sapiens) [compound 137]	BRCA, GC, NHL, RCC, PRCA
132 (LYLETRSEF; listed as Homo sapiens) [compound 132]	BRCA, GBC, GC, HCC, MEL, NSCLC, OC, OSCAR, PACA, PRCA, RCC
82 (VLQSLQHEL; listed as Homo sapiens) [compound 82]	RCC
28 (ATLQAVTLYKK; listed as Homo sapiens) [compound 28]	MEL
127 (TVATQVATSK; listed as Homo sapiens) [compound 127]	BRCA, HNSCC, NSCLC, OC, OSCAR, UBC
212 (WETRLHNLW; listed as Homo sapiens) [compound 212]	AML, BRCA, CLL, CRC, GC, HCC, HNSCC, MEL, NHL, NSCLC, OSCAR, PA; CA, PRCA, RCC, SCLC
79 (SLFRLSISF; listed as Homo sapiens) [compound 79]	BRCA, NSCLC, PACA, RCC, UBC
39 (RELGVGIAL; listed as Homo sapiens) [compound 39]	HNSCC, OSCAR, UBC
2 (GTVFVLLSK; listed as Homo sapiens) [compound 2]	HNSCC, NSCLC, OSCAR, RCC
34 (LLFKGLMWK; listed as Homo sapiens) [compound 34]	HCC, MEL, UBC
72 (GSCSFALSR; listed as Homo sapiens) [compound 72]	CCC, GC, UBC
173 (IFTGRNAYF; listed as Homo sapiens) [compound 173]	GBM, GC, HCC, NSCLC, OC, UBC, UEC
9 (LLGVVSHSV; listed as Homo sapiens) [compound 9]	CLL, NHL
203 (AILVPQPPK; listed as Homo sapiens) [compound 203]	BRCA, CCC, CRC, GC, HCC, HNSCC, NHL, NSCLC, OC, OSCAR, SCLC
51 (SVFSLVHLFDK; listed as Homo sapiens) [compound 51]	NHL, RCC
124 (SPSSNSREL; listed as Homo sapiens) [compound 124]	AML, CRC, GBC, GC, HNSCC, MEL, OC, UBC
122 (FTQKINSTW; listed as Homo sapiens) [compound 122]	BRCA, CCC, CLL, CRC, GBC, GC, HNSCC, MEL, NSCLC, PRCA, RCC, SCLC, UBC
61 (GLIAFAIFK; listed as Homo sapiens) [compound 61]	CRC, GC
29 (GTFIAPVMK; listed as Homo sapiens) [compound 29]	CRC, HNSCC, NSCLC, OSCAR
106 (GLLDAFLRL; listed as Homo sapiens) [compound 106]	HCC
116 (IYLTKSNLVNM; listed as Homo sapiens) [compound 116]	HNSCC, NHL, NSCLC, OSCAR
163 (LWALAIPSL; listed as Homo sapiens) [compound 163]	BRCA, GBC, NHL, NSCLC, OC, UEC

Substance	Peptide presentation on cancer types
41 (APQPRSLAA; listed as Homo sapiens) [compound 41]	BRCA, CCC, GC, HCC, HNSCC, MEL, NHL, NSCLC
103 (RPWLSSPTGL; listed as Homo sapiens) [compound 103]	GBC, GC, HNSCC, NHL, NSCLC, OC, PACA, RCC
139 (EEGRIITKW; listed as Homo sapiens) [compound 139]	BRCA, CRC, CCC, GBC, HCC, HNSCC, MEL, NSCLC, OSCAR, PACA, RCC, UBC
166 (VIFLHQPPK; listed as Homo sapiens) [compound 166]	MEL
23 (AETKQFWSA; listed as Homo sapiens) [compound 23]	GC, OSCAR, PRCA, UTC
11 (TEIGTVIKLF; listed as Homo sapiens) [compound 11]	PRCA
156 (SLRVPSPAL; listed as Homo sapiens) [compound 156]	BRCA, CRC, HNSCC, NHL, NSCLC, PRCA, RCC, UEC
66 (RPLILIRI; listed as Homo sapiens) [compound 66]	AML, CRC, GBC, HNSCC, RCC
42 (LLSRGILIL; listed as Homo sapiens) [compound 42]	CCC, CRC, GC, NSCLC, PRCA
119 (VLHGLLFTL; listed as Homo sapiens) [compound 119]	AML, NHL, NSCLC, RCC
94 (AVFLGNPSNQK; listed as Homo sapiens) [compound 94]	CCC, GC, NHL, NSCLC, OSCAR
175 (MPFLKVPPL; listed as Homo sapiens) [compound 175]	CLL, NHL, NSCLC, SCLC
20 (ILAPPAILK; listed as Homo sapiens) [compound 20]	BRCA, CCC, CRC, GBC, HCC, HNSCC, MEL, NSCLC, OC, OSCAR, UBC, UEC
145 (HLFSVLSAI; listed as Homo sapiens) [compound 145]	BRCA, CCC, CLL, CRC, GBC, GC, HCC, HNSCC, MEL, NHL, NSCLC, OC, OSCAR, PACA, RCC, SCLC
105 (LVFESVVAA; listed as Homo sapiens) [compound 105]	GBC, HNSCC, NHL, NSCLC, RCC, UBC
1 (AILAPPAILK; listed as Homo sapiens) [compound 1]	BRCA, CCC, CRC, GBC, HCC, HNSCC, MEL, NSCLC, OC, OSCAR, PACA, PRCA, UBC, UEC
88 (KVGAVVHLK; listed as Homo sapiens) [compound 88]	BRCA, HCC, NSCLC, OC, OSCAR, RCC, UBC, UEC
150 (IVFLLQQGEK; listed as Homo sapiens) [compound 150]	AML, BRCA, CCC, CRC, GC, MEL, NHL, NSCLC, OSCAR, PACA, SCLC, UBC, UEC
174 (LSGPVTFLR; listed as Homo sapiens) [compound 174]	BRCA, CCC, OSCAR
76 (VQSGVPSRF; listed as Homo sapiens) [compound 76]	GBC, GC, NSCLC
93 (SPIGLSLIL; listed as Homo sapiens) [compound 93]	CCC, HNSCC, NSCLC, OSCAR, SCLC, UBC
87 (LHLNPGLSF; listed as Homo sapiens) [compound 87]	BRCA, GC, MEL, NHL, PACA
111 (RPIWDVRSA; listed as Homo sapiens) [compound 111]	HNSCC, NSCLC, SCLC
75 (TTAAVYILK; listed as Homo sapiens) [compound 75]	NHL, OC
